Data as given in PubChem BioAssay AID504793 (Drosophila RNAi Screening Center, 2011)

Purpose: 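Genes required for cells to halt at G2/M after double-strand DNA breaks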 (primary screen)
System: Drosophila S2R+ cells
Reagents: long dsRNA against Drosophila genes, about 0.25 µg dsRNA per well
Timing: 4 days of dsRNA, then 4 hours of drug before read-out
Conditions: doxorubicin 0.5 µM for 4 hours to cause double-strand breaks, in cells also given a low, harmless dose of dsRNA against nbs to sensitise the assay
Measurement: 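Per-well count of mitotic cells stained for phospho-histone H3 after doxorubicin exposure, used as mitotic index; counts are raw and not normalised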
Scale: mitotic cells: higher = more cells in mitosis, weaker G2 arrest
Call rule: 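a call needs confirmation in secondary tests, with other dsRNAs and a check of mitotic timing without damage, not just a high primary count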
Meaning of the calls: active = confirmed in follow-up tests; inactive = not confirmed
In all, the deposit lists about 23,000 reagents; this is a random part of those with a known target gene and a result. In the full data, 62 (0.27%) were called active. 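Calls come from follow-up tests whose scores are not deposited, so confirmed genes may have low counts here; counts are not normalised per plate.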 Raw values are not corrected between plates. Names joined by + are all predicted targets of the reagent.

Knock-down of CG34056 (GeneID 38106) [DRSC08374] came out at: mitotic cells, replicate 1 = 7; inactive.
Against CG15765 (GeneID 31513) [DRSC23026], the entry reads mitotic cells, replicate 1 = 11; inactive.
CG15765 (GeneID 31513) [DRSC29271] gave mitotic cells, replicate 1 = 7; inactive.
After knock-down of CG2961 (GeneID 31954) [DRSC18246], the screen gave mitotic cells, replicate 1 = 7; inactive.
Against CG2961 (GeneID 31954) [DRSC28539] the deposit lists mitotic cells, replicate 1 = 6; inactive.
Knock-down of AANATL2 (GeneID 33874) [DRSC03227] came out at: mitotic cells, replicate 1 = 2; inactive.
After knock-down of AANATL2 (GeneID 33874) [DRSC26485], the screen gave mitotic cells, replicate 1 = 1; inactive.
jef (GeneID 36634) [DRSC06198] gave mitotic cells, replicate 1 = 8; inactive.
Against jef (GeneID 36634) [DRSC24815] the deposit lists mitotic cells, replicate 1 = 2; inactive.
Against CG5214 (GeneID 41360) [DRSC15739], the entry reads mitotic cells, replicate 1 = 5; inactive.
After knock-down of CG5214 (GeneID 41360) [DRSC22842], the record shows mitotic cells, replicate 1 = 19; inactive.
Against CG5214 (GeneID 41360) [DRSC25298], the entry reads mitotic cells, replicate 1 = 2; inactive.
After knock-down of ana3 (GeneID 36341) [DRSC06289] the results were mitotic cells, replicate 1 = 3; inactive.
Knock-down of ana3 (GeneID 36341) [DRSC28049] gave: mitotic cells, replicate 1 = 6; inactive.
CG9519 (GeneID 32415) [DRSC20195] gave mitotic cells, replicate 1 = 3; inactive.
Depletion of CG9519 (GeneID 32415) [DRSC28137] gave: mitotic cells, replicate 1 = 8; inactive.
Knock-down of CG10013 (GeneID 41494) [DRSC14175] came out at: mitotic cells, replicate 1 = 8; inactive.
Against CG30031 + deltaTry + gammaTry [DRSC07622], the values are mitotic cells, replicate 1 = 4; inactive.
Depletion of Arl5 (GeneID 38931) [DRSC10785] came out at: mitotic cells, replicate 1 = 5; inactive.
After knock-down of Arl5 (GeneID 38931) [DRSC25831], the record shows mitotic cells, replicate 1 = 2; inactive.
ATPsynbeta (GeneID 43829) [DRSC17194] scored mitotic cells, replicate 1 = 7; inactive.
For CG13476 (GeneID 39602) [DRSC10019], the values are mitotic cells, replicate 1 = 4; inactive.
After knock-down of CG33543 (GeneID 3346207) [DRSC00384] the results were mitotic cells, replicate 1 = 8; inactive.
For CG33543 (GeneID 3346207) [DRSC00385], the values are mitotic cells, replicate 1 = 6; inactive.

Reformatted: 3 of the entries above
Target gene,amplicon,"mitotic cells, replicate 1",outcome
jef (GeneID 36634),DRSC24815,2,inactive
CG5214 (GeneID 41360),DRSC15739,5,inactive
CG5214 (GeneID 41360),DRSC22842,19,inactive
